Measurements from publication PMC12013949.

Sequences of proteins named here, by UniProt entry; tags and fusion partners are left off. Residues count along the entry.
UniProt P29844, residues 19-656: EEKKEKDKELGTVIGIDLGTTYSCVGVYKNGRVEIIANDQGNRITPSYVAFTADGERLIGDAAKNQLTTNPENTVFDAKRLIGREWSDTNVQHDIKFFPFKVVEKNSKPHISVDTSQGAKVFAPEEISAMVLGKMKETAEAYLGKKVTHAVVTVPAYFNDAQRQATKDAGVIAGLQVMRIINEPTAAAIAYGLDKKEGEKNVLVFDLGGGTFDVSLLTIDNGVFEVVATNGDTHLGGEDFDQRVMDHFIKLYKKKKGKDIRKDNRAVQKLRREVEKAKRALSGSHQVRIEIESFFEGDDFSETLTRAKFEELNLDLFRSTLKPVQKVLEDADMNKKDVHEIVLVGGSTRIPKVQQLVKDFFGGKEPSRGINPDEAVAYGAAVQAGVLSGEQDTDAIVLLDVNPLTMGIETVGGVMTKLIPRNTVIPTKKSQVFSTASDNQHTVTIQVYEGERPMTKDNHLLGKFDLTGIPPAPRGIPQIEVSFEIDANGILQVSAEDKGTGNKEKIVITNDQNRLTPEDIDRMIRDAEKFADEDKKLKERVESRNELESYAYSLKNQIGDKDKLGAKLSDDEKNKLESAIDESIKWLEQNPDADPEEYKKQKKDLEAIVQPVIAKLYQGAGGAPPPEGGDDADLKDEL

Biological target: T1, Drosophila Werner syndrome exonuclease (WRNexo) with 3xHA, from UAS-WRNexo-3xHA flies (Drosophila) (UniProt Q9VE86)
T1 sequence: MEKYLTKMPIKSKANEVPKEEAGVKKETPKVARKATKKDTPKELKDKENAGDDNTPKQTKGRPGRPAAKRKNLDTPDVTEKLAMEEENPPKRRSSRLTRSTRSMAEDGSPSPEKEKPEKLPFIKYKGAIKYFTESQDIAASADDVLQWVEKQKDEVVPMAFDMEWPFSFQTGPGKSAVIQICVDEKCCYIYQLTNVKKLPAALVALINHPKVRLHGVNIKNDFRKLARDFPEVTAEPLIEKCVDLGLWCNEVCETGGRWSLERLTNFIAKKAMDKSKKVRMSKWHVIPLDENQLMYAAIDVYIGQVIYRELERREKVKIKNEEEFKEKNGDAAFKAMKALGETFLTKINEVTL
Experiment: affinity purification with mass spectrometry; nuclear protein extraction from midguts of flies with esg-Gal4-driven WRNexo-HA overexpression, immunoprecipitation, SDS-PAGE, in-gel tryptic digestion, LC-MS/MS; three independent experiments

binding: binds
Substance: Heat shock 70-kDa protein cognate 3 (Hsc70-3/Bip), endogenous in Drosophila midguts (from UniProt P29844 19-656)

Results are given in words; binding and its absence hold for the method and conditions named. Binding seen in cells or lysates may run through a third protein. Here binding means that the protein was enriched with, or labelled near, the bait; the list need not be complete.
